Data as given in patent US20080287430A1, “Furan Compounds Useful As Ep1 Receptor Antagonists” (priority 2005, published 2008).
Counter-ions that a name gives are not always drawn. Some of these results come from one statement about several compounds together.

Tests used:
[1] = target: T1, human EP3 receptor (Homo sapiens, UniProt P43115); assay: human EP3 calcium mobilisation assay; format: cell-based; details: human EP3, PGE2-induced calcium mobilisation in CHO-K1 cells; free bases or sodium salts; averages of a number of experiments
T1 construct: expressed in transfected cells; host or cells: CHO-K1
T1 sequence (P43115 1-390): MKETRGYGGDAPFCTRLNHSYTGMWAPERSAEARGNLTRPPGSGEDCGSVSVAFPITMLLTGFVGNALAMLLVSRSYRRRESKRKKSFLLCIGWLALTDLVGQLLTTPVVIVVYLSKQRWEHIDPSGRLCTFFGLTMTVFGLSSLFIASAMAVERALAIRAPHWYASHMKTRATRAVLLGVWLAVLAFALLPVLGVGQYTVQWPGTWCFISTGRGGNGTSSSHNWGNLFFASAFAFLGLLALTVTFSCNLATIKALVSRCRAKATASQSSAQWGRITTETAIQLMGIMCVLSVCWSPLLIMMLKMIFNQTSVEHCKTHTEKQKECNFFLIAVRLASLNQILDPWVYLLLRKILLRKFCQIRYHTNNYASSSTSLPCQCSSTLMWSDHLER

[2] = target: T2, human EP1 receptor (Homo sapiens, UniProt P34995); assay: human EP1 calcium mobilisation assay; format: cell-based; details: human EP1, PGE2-induced calcium mobilisation in CHO-K1 cells; free bases or sodium salts; averages of a number of experiments
T2 construct: expressed in transfected cells; host or cells: CHO-K1
T2 sequence (P34995 1-402): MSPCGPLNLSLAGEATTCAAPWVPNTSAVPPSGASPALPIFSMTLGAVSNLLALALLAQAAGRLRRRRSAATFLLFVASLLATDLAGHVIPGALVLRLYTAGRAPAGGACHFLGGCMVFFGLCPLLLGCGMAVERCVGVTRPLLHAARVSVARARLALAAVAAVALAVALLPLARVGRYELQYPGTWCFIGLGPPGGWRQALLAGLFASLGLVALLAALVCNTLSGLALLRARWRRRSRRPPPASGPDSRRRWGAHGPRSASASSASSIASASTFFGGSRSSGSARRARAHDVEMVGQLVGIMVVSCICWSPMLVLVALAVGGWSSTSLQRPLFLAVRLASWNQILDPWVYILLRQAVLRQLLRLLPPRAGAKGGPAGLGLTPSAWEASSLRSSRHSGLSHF
Procedure: Briefly, the antagonist properties of compounds are assessed by their ability to inhibit the mobilisation of intracellular calcium ([Ca^2+]i) in response to activation of EP1 or EP3 receptors by the natural agonist hormone prostaglandin E2 (PGE2). Increasing concentrations of antagonist reduce the amount of calcium that a given concentration of PGE2 can mobilise. The net effect is to displace the PGE2 concentration-effect curve to higher concentrations of PGE2. The amount of calcium produced is assessed using a calcium-sensitive fluorescent dye such as Fluo-4, AM and a suitable instrument such as a Fluorimetric Imaging Plate Reader (FLIPR). Increasing amounts of [Ca^2+]i produced by receptor activation increase the amount of fluorescence produced by the dye and give rise to an increasing signal. The signal may be detected using the FLIPR instrument and the data generated may be analysed with suitable curve-fitting software.
The human EP1 or EP3 calcium mobilisation assay (hereafter referred to as ‘the calcium assay’) utilises Chinese hamster ovary-K1(CHO-K1) cells into which a stable (pCIN; BioTechniques 20 (1996): 102-110) vector containing either EP1 or EP3 cDNA has previously been transfected. Cells are cultured in suitable flasks containing culture medium such as DMEM:F-12 supplemented with 10% v/v foetal calf serum, 2 mM L-glutamine, 0.25 mg/ml geneticin, 100 μM flurbiprofen and 10 μg/ml puromycin.
For assay, cells are harvested using a proprietary reagent that dislodges cells such as Versene. Cells are re-suspended in a suitable quantity of fresh culture media for introduction into a 384-well plate. Following incubation for 24 hours at 37° C. the culture media is replaced with a medium containing Fluo-4 and the detergent pluronic acid, and a further incubation takes place. Concentrations of compounds are then added to the plate in order to construct concentration-effect curves. This may be performed on the FLIPR in order to assess the agonist properties of the compounds. Concentrations of PGE2 are then added to the plate in order to assess the antagonist properties of the compounds.
The data so generated may be analysed by means of a computerised curve-fitting routine. The concentration of compound that elicits a half-maximal inhibition of the calcium mobilisation induced by PGE2 (pIC50) may then be estimated.

Compound	functional pKi value [1]	functional pKi value [2]
CC(C)COc1ccc(Cl)cc1Cc1ccc(C(=O)Nc2ccc(S(C)(=O)=O)cc2)o1 [Example 59, 5-({5-Chloro-2-[(2-methylpropyl)oxy]-phenyl}methyl)-N-[4-(methylsulfonyl)-phenyl]-2-furancarboxamide]	≤ 6.5	> 6
CC(C)COc1ccc(Cl)cc1Cc1ccc(C(=O)Nc2ccc(-n3ccnc3)cc2)o1 [Example 60, 5-({5-Chloro-2-[(2-methylpropyl)oxy]-phenyl}methyl)-N-[4-(1H-imidazol-1-yl)phenyl]-2-furancarboxamide]	≤ 6.5	> 6
CC(C)COc1ccc(Cl)cc1Cc1ccc(C(=O)Nc2ccc(-n3cncn3)cc2)o1 [Example 61, 5-({5-Chloro-2-[(2-methylpropyl)oxy]-phenyl}methyl)-N-[4-(1H-1,2,4-triazol-1-yl)phenyl]-2-furancarboxamide]	≤ 6.5	> 6
COc1ccc(NC(=O)c2ccc(Cc3cc(Cl)ccc3OCC(C)C)o2)cc1 [Example 62, 5-({5-Chloro-2-[(2-methylpropyl)oxy]-phenyl}methyl)-N-[4-(methyloxy)phenyl]-2-furancarboxamide]	≤ 6.5	> 6
CC(C)COc1ccc(Cl)cc1Cc1ccc(C(=O)Nc2ccc(N3CCOCC3)cc2)o1 [Example 63, 5-({5-Chloro-2-[(2-methylpropyl)oxy]-phenyl}methyl)-N-[4-(4-morpholinyl)phenyl]-2-furancarboxamide]	≤ 6.5	> 6
CC(C)COc1ccc(Cl)cc1Cc1ccc(C(=O)NCc2cccnc2)o1 [Example 64, 5-({5-Chloro-2-[(2-methylpropyl)oxy]-phenyl}methyl)-N-(3-pyridinylmethyl)-2-furancarboxamide]	≤ 6.5	> 6
CC(C)COc1ccc(Cl)cc1Cc1ccc(C(=O)NCc2ccncc2)o1 [Example 65, 5-({5-Chloro-2-[(2-methylpropyl)oxy]-phenyl}methyl)-N-(4-pyridinylmethyl)-2-furancarboxamide]	≤ 6.5	> 6
CC(C)COc1ccc(Cl)cc1Cc1ccc(C(=O)N2CCN(Cc3ccccc3)CC2)o1 [Example 66, 1-{[5-({5-Chloro-2-[(2-methylpropyl)oxy]-phenyl}methyl)-2-furanyl]carbonyl}-4-(phenylmethyl)-piperazine]	≤ 6.5	> 6

Other lines, results leading:

functional pKi value [1]	functional pKi value [2]	Compound
	> 6	Fc1ccc2nc(-c3ccc(Cc4cc(Cl)ccc4OCc4ccccc4)o3)[nH]c2c1F [Example 130, 2-[5-({5-Chloro-2-[(phenylmethyl)oxy]-phenyl}methyl)-2-furanyl]-4,5-difluoro-1H-benzimidazole]
	> 6	Clc1ccc(OCc2ccccc2)c(Cc2ccc(-c3nc4ccc(CNC5CC5)cc4[nH]3)o2)c1 [Example 157, N-({2-[5-({5-Chloro-2-[(phenylmethyl)oxy]-phenyl}methyl)-2-furanyl]-1H-benzimidazol-5-yl}methyl)cyclopropan-aminedihdrochloride]
	> 6	CN(CCC#N)Cc1ccc2nc(-c3ccc(Cc4cc(Cl)ccc4OCc4ccccc4)o3)[nH]c2c1 [Example 158, 3-[({2-[5-({5-Chloro-2-[(phenylmethyl)oxy]-phenyl}methyl)-2-furanyl]-1H-benzimidazol-5-yl}methyl)(methyl)-amino]propanenitriledihydrochloride]
	> 6	COCCN(C)Cc1ccc2nc(-c3ccc(Cc4cc(Cl)ccc4OCc4ccccc4)o3)[nH]c2c1 [Example 159, N-({2-[5-({5-Chloro-2-[(phenylmethyl)oxy]-phenyl}methyl)-2-furanyl]-1H-benzimidazol-5-yl}methyl)-N-methyl-2-(methyloxy)ethan-amine dihydrochloride]
